Data as given in PubChem BioAssay AID743458 (Peter MacCallum Cancer Centre, 2014)
Screen: 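Identify genes whose loss lifts vorinostat resistance in colon cancer cells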 (follow-up of hits). Cell system: human HCT116-VR colon cancer cells made resistant to vorinostat. Reagent: single siRNA or pool against human genes, 25 nM per single siRNA. Time to read-out: about 72 h after transfection, including 24 h of drug. Challenge: vorinostat, 2.5 µM final, for 24 h. Measured: 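Cell viability by fluorescence and apoptosis by caspase 3/7 luminescence under vorinostat, background-corrected, averaged across two plate copies and given as fold change versus mock transfection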. Reading the numbers: viability relative to mock: higher = more living cells than mock; caspase activity relative to mock: higher = more apoptosis than mock. Rule for the call: 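An siRNA counts as active if classed as reduced viability or as caspase activation, otherwise inactive; a hit class needed wells that remained healthy in the absence of drug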.
In all, the deposit lists about 1,800 reagents; shown is a random part of them. 732 of all reagents (41%) were called active. 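Calls are per siRNA reagent; a gene was deemed confirmed only if most of its four siRNAs scored.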 Unmarked entries are inactive. The numbers tell different reagents against one gene apart.

| gene | reagent | viability relative to mock | caspase activity relative to mock | viability hit class | caspase hit class |
| --- | --- | --- | --- | --- | --- |
| FAM86B1 | 1 | 0.67 | 1.68 | no change | no change |
| FAM86B1 | 2 | 0.84 (active) | 4.17 | no change | caspase activation |
| FAM86B1 | 3 | 0.98 | 1.18 | no change | no change |
| FAM86B1 | 4 | 0.73 (active) | 4.21 | no change | caspase activation |
| THAP1 | 1 | 0.62 (active) | 3.5 | no change | caspase activation |
| THAP1 | 2 | 0.76 | 1.83 | no change | no change |
| THAP1 | 3 | 0.79 | 2.33 | no change | no change |
| THAP1 | 4 | 0.55 (active) | 4.48 | reduced viability | caspase activation |

Laid out differently: results already given.
{"gene":"THAP1","reagent":3,"viability relative to mock":0.79,"caspase activity relative to mock":2.33,"viability hit class":"no change","caspase hit class":"no change"}
{"gene":"THAP1","reagent":4,"viability relative to mock":"0.55 (active)","caspase activity relative to mock":4.48,"viability hit class":"reduced viability","caspase hit class":"caspase activation"}

The results go on.
| gene | reagent | viability relative to mock | caspase activity relative to mock | viability hit class | caspase hit class |
| --- | --- | --- | --- | --- | --- |
| LAD1 | 1 | 0.4 (active) | 5.43 | reduced viability | caspase activation |
| LAD1 | 2 | 0.36 (active) | 3.85 | reduced viability | caspase activation |
| LAD1 | 3 | 0.78 (active) | 2.83 | no change | caspase activation |
| LAD1 | 4 | 0.94 | 1.82 | no change | no change |
| ZNF354B | 1 | 0.58 (active) | 3.33 | no change | caspase activation |
| ZNF354B | 2 | 0.72 | 2 | no change | no change |
| ZNF354B | 3 | 1.12 | 0.9 | no change | no change |
| ZNF354B | 4 | 0.42 (active) | 2.66 | reduced viability | caspase activation |
